Results published in US7022524B1, “Increasing plant growth with luminol” (The Regents of the University of California, Office of …, priority 1998, dated 2006).
Some results were stated once for a whole list of compounds, not compound by compound. Some compounds share one range, which may span the group rather than tell each member.

Tested on: R. meliloti 1021
Assay: Production of compounds D and Y by bacterial cultures in supplemented medium
Assay type: cell-based, Rhizobium meliloti
Conditions: culture medium supplemented at final concentration of 50 micromolar

CC(=O)c1c(O)cc(O)c(C(C)=O)c1O [diacetylphloroglucinol, 2,4-diacetyl-1,3,5-benzenetriol]
increase in production of compound D: 60% to 70%

CC(=O)c1c(O)cc(O)cc1O [monoacetylphloroglucinol]
increase in production of compound D: 60% to 70%

Oc1cc(O)cc(O)c1 [phloroglucinol, reference compound]
increase in production of compound D: 60% to 70%
